Reference: the supplement of paper PMC10849652
This is one part of the list.

The chains behind the UniProt entries cited, without tags or fusion partners. Where a name states a change or a piece, a line headed by the entry shows the natural chain unless it says otherwise.
UniProt P82094: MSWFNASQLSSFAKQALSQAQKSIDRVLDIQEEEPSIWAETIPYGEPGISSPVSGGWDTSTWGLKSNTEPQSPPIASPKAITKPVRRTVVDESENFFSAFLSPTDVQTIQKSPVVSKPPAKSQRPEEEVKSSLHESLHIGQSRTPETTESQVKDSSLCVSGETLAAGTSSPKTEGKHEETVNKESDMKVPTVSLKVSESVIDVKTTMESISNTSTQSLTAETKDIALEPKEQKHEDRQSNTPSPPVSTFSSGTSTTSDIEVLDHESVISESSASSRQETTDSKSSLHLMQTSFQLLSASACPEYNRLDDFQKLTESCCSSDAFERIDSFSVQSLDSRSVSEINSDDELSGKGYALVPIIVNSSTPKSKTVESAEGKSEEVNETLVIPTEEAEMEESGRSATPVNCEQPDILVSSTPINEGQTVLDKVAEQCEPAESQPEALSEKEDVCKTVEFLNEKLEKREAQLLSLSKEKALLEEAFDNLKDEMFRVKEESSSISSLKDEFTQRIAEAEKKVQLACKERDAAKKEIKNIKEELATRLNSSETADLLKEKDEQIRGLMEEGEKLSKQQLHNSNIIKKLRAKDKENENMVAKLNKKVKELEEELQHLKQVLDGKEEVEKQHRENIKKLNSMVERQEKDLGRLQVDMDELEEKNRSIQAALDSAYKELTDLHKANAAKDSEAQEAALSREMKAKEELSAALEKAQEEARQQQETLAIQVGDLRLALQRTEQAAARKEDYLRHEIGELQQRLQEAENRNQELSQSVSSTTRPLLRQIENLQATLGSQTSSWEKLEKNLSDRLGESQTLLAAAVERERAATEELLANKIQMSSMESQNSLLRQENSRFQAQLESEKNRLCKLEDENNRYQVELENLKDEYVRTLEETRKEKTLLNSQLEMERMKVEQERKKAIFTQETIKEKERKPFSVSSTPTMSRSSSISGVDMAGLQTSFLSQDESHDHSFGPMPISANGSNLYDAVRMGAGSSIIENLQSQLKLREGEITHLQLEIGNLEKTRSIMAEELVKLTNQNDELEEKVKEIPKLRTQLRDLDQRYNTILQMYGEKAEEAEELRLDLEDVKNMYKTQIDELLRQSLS
UniProt Q13445: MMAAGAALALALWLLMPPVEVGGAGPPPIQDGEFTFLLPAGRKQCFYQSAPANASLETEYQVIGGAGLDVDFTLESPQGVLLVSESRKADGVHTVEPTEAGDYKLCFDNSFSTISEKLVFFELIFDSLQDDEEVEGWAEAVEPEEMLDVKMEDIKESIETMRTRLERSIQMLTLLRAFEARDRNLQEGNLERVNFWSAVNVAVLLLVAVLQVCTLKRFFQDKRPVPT
UniProt Q96B77: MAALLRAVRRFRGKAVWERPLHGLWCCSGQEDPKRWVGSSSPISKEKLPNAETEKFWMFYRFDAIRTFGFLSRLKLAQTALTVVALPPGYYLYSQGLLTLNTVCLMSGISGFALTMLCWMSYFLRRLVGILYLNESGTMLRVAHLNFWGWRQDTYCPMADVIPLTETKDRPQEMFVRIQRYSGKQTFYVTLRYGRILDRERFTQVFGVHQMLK
UniProt Q9H0V1: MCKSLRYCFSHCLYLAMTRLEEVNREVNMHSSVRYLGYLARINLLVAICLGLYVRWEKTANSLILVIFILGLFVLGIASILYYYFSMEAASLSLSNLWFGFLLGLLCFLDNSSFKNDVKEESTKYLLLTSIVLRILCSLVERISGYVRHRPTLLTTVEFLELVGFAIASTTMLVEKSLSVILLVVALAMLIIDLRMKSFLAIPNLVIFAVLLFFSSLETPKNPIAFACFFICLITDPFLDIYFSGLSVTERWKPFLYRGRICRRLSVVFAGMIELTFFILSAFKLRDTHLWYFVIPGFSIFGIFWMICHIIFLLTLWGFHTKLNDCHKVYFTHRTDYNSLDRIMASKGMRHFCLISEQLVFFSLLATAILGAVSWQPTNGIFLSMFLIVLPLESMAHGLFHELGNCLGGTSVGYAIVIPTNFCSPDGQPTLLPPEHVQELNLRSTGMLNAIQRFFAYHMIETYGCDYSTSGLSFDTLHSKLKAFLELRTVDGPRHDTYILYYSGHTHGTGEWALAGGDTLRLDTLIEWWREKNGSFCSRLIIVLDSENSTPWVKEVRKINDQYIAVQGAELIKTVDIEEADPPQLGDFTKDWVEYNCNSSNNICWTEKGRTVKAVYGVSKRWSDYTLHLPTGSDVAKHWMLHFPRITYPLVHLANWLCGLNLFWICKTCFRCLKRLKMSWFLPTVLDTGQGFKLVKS
UniProt Q15363: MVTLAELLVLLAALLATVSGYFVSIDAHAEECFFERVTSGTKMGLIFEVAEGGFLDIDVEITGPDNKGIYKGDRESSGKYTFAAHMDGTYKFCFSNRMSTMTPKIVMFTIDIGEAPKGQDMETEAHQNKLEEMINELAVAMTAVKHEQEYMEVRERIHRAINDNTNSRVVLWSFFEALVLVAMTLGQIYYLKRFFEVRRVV
UniProt Q8NBN3: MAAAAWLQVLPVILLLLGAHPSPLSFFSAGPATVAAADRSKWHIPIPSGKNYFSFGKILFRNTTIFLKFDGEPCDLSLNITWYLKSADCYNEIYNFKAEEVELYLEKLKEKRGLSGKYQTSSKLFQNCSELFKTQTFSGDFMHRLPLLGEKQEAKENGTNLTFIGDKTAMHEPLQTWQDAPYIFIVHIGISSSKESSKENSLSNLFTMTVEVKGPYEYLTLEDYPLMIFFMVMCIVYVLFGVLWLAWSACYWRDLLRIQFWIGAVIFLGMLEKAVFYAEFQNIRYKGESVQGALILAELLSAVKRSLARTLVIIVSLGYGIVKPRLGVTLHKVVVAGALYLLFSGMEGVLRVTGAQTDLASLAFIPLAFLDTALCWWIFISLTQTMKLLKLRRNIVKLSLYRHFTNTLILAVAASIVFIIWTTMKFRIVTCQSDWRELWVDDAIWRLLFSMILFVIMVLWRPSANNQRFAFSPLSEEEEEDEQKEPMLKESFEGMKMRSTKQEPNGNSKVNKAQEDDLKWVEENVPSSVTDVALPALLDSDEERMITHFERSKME
UniProt Q04727: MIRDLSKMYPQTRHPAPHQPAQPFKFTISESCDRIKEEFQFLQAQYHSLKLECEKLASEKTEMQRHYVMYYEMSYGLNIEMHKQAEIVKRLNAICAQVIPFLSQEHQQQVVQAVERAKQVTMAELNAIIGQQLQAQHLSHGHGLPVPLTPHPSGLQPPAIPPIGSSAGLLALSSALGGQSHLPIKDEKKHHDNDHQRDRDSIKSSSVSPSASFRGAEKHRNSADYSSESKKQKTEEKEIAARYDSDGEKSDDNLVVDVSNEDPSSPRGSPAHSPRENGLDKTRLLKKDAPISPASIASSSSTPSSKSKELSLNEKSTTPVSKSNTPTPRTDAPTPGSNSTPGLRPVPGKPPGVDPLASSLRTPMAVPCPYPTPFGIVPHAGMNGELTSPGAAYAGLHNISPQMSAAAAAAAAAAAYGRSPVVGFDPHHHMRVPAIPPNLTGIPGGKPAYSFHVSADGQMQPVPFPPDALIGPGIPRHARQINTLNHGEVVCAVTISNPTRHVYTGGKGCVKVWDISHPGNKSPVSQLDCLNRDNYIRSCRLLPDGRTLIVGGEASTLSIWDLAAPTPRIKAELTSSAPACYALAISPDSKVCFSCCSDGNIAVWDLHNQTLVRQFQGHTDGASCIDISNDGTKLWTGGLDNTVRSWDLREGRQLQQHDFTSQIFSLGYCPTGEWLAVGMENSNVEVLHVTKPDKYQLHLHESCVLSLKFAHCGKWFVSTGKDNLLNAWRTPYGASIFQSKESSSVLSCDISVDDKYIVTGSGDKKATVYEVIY
UniProt Q9H7F4: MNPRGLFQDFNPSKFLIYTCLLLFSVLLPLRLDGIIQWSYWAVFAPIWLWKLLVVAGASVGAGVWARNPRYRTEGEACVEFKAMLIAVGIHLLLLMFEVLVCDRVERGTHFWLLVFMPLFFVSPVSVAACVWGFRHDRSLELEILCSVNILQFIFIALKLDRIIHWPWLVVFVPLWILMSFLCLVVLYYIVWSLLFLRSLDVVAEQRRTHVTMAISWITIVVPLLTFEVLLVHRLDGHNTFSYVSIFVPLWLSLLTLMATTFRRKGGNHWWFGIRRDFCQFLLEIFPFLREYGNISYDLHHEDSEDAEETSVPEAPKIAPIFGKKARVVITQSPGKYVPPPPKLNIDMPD
UniProt P49755: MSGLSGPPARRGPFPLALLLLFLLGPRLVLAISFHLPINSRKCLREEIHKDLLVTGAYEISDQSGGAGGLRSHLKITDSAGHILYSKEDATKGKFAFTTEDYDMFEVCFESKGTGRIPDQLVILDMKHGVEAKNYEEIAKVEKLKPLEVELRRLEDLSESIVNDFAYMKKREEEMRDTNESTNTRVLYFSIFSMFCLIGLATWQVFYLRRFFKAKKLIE
UniProt Q9NVH6: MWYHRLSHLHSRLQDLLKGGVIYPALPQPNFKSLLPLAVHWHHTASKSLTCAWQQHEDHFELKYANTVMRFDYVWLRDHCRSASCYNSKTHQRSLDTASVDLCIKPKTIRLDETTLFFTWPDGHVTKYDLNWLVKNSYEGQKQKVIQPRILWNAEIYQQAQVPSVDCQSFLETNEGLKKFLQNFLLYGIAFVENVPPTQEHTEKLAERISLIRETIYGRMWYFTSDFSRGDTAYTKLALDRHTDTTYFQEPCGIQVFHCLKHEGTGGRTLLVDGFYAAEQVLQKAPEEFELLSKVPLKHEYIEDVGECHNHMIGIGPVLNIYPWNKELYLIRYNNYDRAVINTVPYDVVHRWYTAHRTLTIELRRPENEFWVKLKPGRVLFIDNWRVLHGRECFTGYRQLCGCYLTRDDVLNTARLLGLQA
UniProt Q9BVK6: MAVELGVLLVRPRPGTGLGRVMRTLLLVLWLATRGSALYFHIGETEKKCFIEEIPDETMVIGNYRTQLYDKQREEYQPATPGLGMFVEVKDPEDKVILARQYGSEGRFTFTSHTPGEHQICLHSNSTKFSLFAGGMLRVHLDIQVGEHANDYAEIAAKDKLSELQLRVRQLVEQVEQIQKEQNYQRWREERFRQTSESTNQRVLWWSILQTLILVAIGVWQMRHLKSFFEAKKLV
UniProt Q9NZR1: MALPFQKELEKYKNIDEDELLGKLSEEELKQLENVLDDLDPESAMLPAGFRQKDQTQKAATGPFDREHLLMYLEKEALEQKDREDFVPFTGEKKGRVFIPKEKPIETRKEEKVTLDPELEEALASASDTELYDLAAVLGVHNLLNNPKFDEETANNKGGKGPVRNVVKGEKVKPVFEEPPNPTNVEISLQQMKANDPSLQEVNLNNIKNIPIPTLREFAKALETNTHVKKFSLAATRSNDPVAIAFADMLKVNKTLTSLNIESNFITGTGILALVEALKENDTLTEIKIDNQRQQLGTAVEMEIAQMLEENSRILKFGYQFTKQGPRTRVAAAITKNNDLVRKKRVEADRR
UniProt Q9H1E5: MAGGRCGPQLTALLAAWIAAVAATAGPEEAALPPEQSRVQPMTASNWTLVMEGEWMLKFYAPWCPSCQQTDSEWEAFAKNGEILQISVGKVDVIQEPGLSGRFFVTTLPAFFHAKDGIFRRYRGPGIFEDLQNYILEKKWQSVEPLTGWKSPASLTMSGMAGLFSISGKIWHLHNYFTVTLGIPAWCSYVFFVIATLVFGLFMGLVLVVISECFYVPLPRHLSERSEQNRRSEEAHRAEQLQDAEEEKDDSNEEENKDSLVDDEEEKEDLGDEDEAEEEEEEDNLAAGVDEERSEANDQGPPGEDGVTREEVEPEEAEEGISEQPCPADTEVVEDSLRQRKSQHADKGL
UniProt Q4ZIN3: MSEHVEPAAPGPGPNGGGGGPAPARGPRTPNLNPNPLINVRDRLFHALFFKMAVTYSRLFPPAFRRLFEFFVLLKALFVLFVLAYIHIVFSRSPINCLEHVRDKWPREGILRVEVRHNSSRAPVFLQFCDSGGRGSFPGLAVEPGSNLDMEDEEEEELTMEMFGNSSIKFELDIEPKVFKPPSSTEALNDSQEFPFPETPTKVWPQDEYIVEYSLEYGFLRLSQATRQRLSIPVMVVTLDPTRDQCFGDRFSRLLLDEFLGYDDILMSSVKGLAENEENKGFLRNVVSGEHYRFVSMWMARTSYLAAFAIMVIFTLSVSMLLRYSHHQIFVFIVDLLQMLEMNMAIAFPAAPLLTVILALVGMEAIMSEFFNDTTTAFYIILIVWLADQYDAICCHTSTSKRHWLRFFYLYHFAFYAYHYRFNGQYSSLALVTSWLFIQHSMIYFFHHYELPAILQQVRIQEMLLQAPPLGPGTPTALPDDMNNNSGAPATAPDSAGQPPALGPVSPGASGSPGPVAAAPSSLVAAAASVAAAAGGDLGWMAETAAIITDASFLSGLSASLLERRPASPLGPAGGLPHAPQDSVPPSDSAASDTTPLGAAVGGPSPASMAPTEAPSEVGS
UniProt Q9P0S9: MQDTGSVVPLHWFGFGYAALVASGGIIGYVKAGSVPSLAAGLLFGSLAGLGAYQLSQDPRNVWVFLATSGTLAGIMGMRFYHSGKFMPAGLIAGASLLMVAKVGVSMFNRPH

How the values were obtained:
Assay in all cases: log2 fold change, soluble protein after heating vs DMSO (PISA); higher = thermal stabilisation; K562 cells, 10 uM, 30 min; active = over 0.2 and 3.5 SD of the protein, either way, in both replicates (recomputed)
saracatinib = compound: CN1CCN(CCOc2cc(OC3CCOCC3)c3c(Nc4c(Cl)ccc5c4OCO5)ncnc3c2)CC1 [saracatinib]
Method in brief: (§1)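 Soluble protein was defined as the supernatant after 21,000xg for 90 min. It came from K562 cells at 2×10^6 cells/mL given 10 μM compound for 30 min, heated in aliquots for 3 min across 48°C-58°C, pooled, and extracted in PBS with 0.5% NP-40 at 4°C, and was quantified by TMTpro 16plex LC-MS/MS with equalised channel sums. Thermal stability against control samples, from duplicates, is reported as log2 fold change.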

sotrastaurin = compound: CN1CCN(c2nc(C3=C(c4c[nH]c5ccccc45)C(=O)NC3=O)c3ccccc3n2)CC1 [sotrastaurin]
Method in brief: as §1

alvocidib = compound: CN1CC[C@H](c2c(O)cc(O)c3c(=O)cc(-c4ccccc4Cl)oc23)[C@H](O)C1 [alvocidib]
Method in brief: as §1

Tubastatin A = compound: CN1CCc2c(c3ccccc3n2Cc2ccc(C(=O)NO)cc2)C1 [Tubastatin A]
Method in brief: as §1

[1] = compound: CNC(=O)C1=CC=CC=C1NC2=NC(=NC=C2Cl)NC3=C(C=C(C=C3)N4CCOCC4)OC
Method in brief: as §1

defactinib = compound: CNC(=O)c1ccc(Nc2ncc(C(F)(F)F)c(NCc3nccnc3N(C)S(C)(=O)=O)n2)cc1 [defactinib]
Method in brief: as §1

rucaparib = compound: CNCc1ccc(-c2[nH]c3cc(F)cc4c3c2CCNC4=O)cc1 [rucaparib]
Method in brief: as §1

[2] = compound: CNc1nc(-c2ccc3c(N)n[nH]c3c2)cc(N2C[C@@H](C(=O)NC3CCCCC3)CC[C@H]2C)n1
Method in brief: as §1

encorafenib = compound: COC(=O)N[C@@H](C)CNc1nccc(-c2cn(C(C)C)nc2-c2cc(Cl)cc(NS(C)(=O)=O)c2F)n1 [encorafenib]
Method in brief: as §1

[3] = compound: COC(=O)[C@H](CCSC)NC(=O)C1=C(C=C(C=C1)NC[C@H](CS)N)C2=CC=CC=C2
Method in brief: as §1

[4] = compound: COC1=CC=C(C=C1)CN2C=CC3=C2C=C(C=C3)C(=O)NO
Method in brief: as §1

filanesib = compound: CON(C)C(=O)N1N=C(c2cc(F)ccc2F)S[C@@]1(CCCN)c1ccccc1 [filanesib]
Method in brief: as §1

zotarolimus = compound: CO[C@H]1C[C@@H]2CC[C@@H](C)[C@@](O)(O2)C(=O)C(=O)N2CCCC[C@H]2C(=O)O[C@H]([C@H](C)C[C@@H]2CC[C@H](n3cnnn3)[C@H](OC)C2)CC(=O)[C@H](C)/C=C(\C)[C@@H](O)[C@@H](OC)C(=O)[C@H](C)C[C@H](C)/C=C/C=C/C=C/1C [zotarolimus]
Method in brief: as §1

idasanutlin = compound: COc1cc(C(=O)O)ccc1NC(=O)[C@@H]1N[C@@H](CC(C)(C)C)[C@](C#N)(c2ccc(Cl)cc2F)[C@H]1c1cccc(Cl)c1F [idasanutlin]
Method in brief: as §1

alisertib = compound: COc1cc(Nc2ncc3c(n2)-c2ccc(Cl)cc2C(c2c(F)cccc2OC)=NC3)ccc1C(=O)O [alisertib]
Method in brief: as §1

[5] = compound: COc1cc2nc(-c3cc(F)ccc3O)nc(N[C@@H]3CNC[C@H]3C(C)(C)O)c2cc1OC
Method in brief: as §1

gefitinib = compound: COc1cc2ncnc(Nc3ccc(F)c(Cl)c3)c2cc1OCCCN1CCOCC1 [gefitinib]
Method in brief: as §1

[6] = compound: COc1cccc2cc(-c3nc([C@H]4CC[C@H](C(=O)O)CC4)n4ncnc(N)c34)[nH]c12
Method in brief: as §1

lapatinib = compound: CS(=O)(=O)CCNCc1ccc(-c2ccc3ncnc(Nc4ccc(OCc5cccc(F)c5)c(Cl)c4)c3c2)o1 [lapatinib]
Method in brief: as §1

pictilisib = compound: CS(=O)(=O)N1CCN(Cc2cc3nc(-c4cccc5[nH]ncc45)nc(N4CCOCC4)c3s2)CC1 [pictilisib]
Method in brief: as §1

Measured: log2 fold change

TMF1 (UniProt P82094)
inactive: saracatinib 0.066 | sotrastaurin 0.025 | alvocidib 0.007 | Tubastatin A -0.016 | [1] -0.001 | defactinib -0.002 | rucaparib -0.037 | [2] -0.044 | encorafenib -0.045 | [3] 0.017 | [4] -0.036 | filanesib 0.032 | zotarolimus -0.014 | idasanutlin 0.021 | alisertib 0.007 | [5] -0.007 | gefitinib -0.01 | [6] 0.011 | lapatinib 0.011 | pictilisib 0.027

TMED1 (UniProt Q13445)
inactive: saracatinib 0.051 | sotrastaurin 0.02 | alvocidib 0.018 | Tubastatin A -0.018 | [1] 0.027 | defactinib -0.014 | rucaparib -0.023 | [2] -0.006 | encorafenib 0.022 | [3] 0.061 | [4] -0.066 | filanesib -0.076 | zotarolimus -0.023 | idasanutlin -0.184 | alisertib -0.063 | [5] -0.059 | gefitinib 0.061 | [6] 0.041 | lapatinib 0.162 | pictilisib 0.062

TMEM186 (UniProt Q96B77)
inactive: saracatinib -0.003 | sotrastaurin -0.022 | alvocidib -0.113 | Tubastatin A -0.047 | [1] 0.009 | defactinib -0.044 | rucaparib -0.067 | [2] 0.016 | encorafenib -0.103 | [3] -0.036 | [4] -0.078 | filanesib -0.035 | zotarolimus -0.09 | idasanutlin -0.008 | alisertib -0.014 | [5] -0.035 | gefitinib 0.001 | [6] 0.13 | lapatinib 0.081

TMEM168 (UniProt Q9H0V1)
inactive: saracatinib -0.289 | sotrastaurin 0.109 | alvocidib 0.026 | Tubastatin A -0.107 | [1] 0.023 | defactinib -0.025 | rucaparib 0 | [2] -0.048 | encorafenib -0.048 | [3] -0.066 | [4] -0.026 | filanesib -0.009 | zotarolimus -0.03 | idasanutlin -0.084 | alisertib 0.009 | [5] 0.028 | gefitinib 0.008 | [6] 0.074 | lapatinib -0.042 | pictilisib -0.009

TMED2 (UniProt Q15363)
inactive: saracatinib -0.004 | sotrastaurin 0.018 | alvocidib -0.008 | Tubastatin A -0.026 | [1] 0.045 | defactinib 0.003 | rucaparib 0.002 | [2] -0.011 | encorafenib -0.001 | [3] -0.013 | [4] -0.018 | filanesib -0.077 | zotarolimus -0.019 | idasanutlin 0.001 | alisertib -0.033 | [5] -0.02 | gefitinib 0.013 | [6] 0.063 | lapatinib 0.086 | pictilisib 0.028

TMEM87A (UniProt Q8NBN3)
inactive: saracatinib 0.011 | sotrastaurin 0.058 | alvocidib 0.037 | Tubastatin A -0.03 | [1] 0.024 | defactinib -0.029 | rucaparib 0.015 | [2] -0.031 | encorafenib -0.008 | [3] 0.012 | [4] 0.005 | filanesib 0.014 | zotarolimus -0.043 | idasanutlin -0.022 | alisertib -0.02 | [5] 0.024 | gefitinib 0.079 | [6] 0.049 | lapatinib 0.03 | pictilisib 0.095

TLE4 isoform 3 (UniProt Q04727)
inactive: saracatinib -0.003 | sotrastaurin 0.002 | alvocidib 0.007 | Tubastatin A -0.034 | [1] -0.028 | defactinib -0.017 | rucaparib -0.024 | [2] -0.009 | encorafenib -0.014 | [3] 0.009 | [4] 0.029 | filanesib 0.004 | zotarolimus -0.015 | idasanutlin -0.05 | alisertib -0.04 | [5] 0.001 | gefitinib 0.017 | [6] 0.05 | lapatinib -0.024 | pictilisib 0.043

TMEM185B (UniProt Q9H7F4)
inactive: saracatinib -0.079 | sotrastaurin 0.046 | alvocidib 0.09 | Tubastatin A 0.003 | [1] 0 | defactinib 0.061 | rucaparib -0.114 | [2] -0.087 | encorafenib 0.115 | [3] -0.091 | [4] -0.117 | filanesib -0.095 | zotarolimus -0.015 | idasanutlin 0.036 | alisertib -0.029 | [5] -0.055 | gefitinib -0.099 | [6] 0.015 | lapatinib -0.03 | pictilisib 0.101

TMED10 (UniProt P49755)
inactive: saracatinib -0.013 | sotrastaurin 0.038 | alvocidib -0.041 | Tubastatin A -0.026 | [1] 0.081 | defactinib -0.012 | rucaparib 0.002 | [2] -0.037 | encorafenib -0.016 | [3] -0.018 | [4] -0.029 | filanesib -0.041 | zotarolimus 0.012 | idasanutlin -0.011 | alisertib -0.037 | [5] -0.026 | gefitinib 0.04 | [6] 0.034 | lapatinib -0.025 | pictilisib 0.038

TMCO1 (UniProt Q9UM00)
inactive: saracatinib -0.001 | sotrastaurin 0.054 | alvocidib -0.04 | Tubastatin A 0.018 | [1] 0.011 | defactinib -0.047 | rucaparib 0.006 | [2] -0.03 | encorafenib 0 | [3] -0.04 | [4] -0.142 | filanesib -0.148 | zotarolimus -0.001 | idasanutlin 0.016 | alisertib -0.036 | [5] -0.098 | gefitinib 0.002 | [6] 0.048 | lapatinib -0.075 | pictilisib -0.021

TMLHE isoform 8 (UniProt Q9NVH6)
inactive: saracatinib 0.017 | sotrastaurin -0.005 | alvocidib 0.039 | Tubastatin A 0.231 | [1] -0.013 | defactinib 0.027 | rucaparib 0.036 | [2] -0.036 | encorafenib 0.023 | [3] 0 | [4] -0.19 | filanesib -0.061 | zotarolimus -0.07 | idasanutlin -0.003 | alisertib 0 | [5] -0.004 | gefitinib -0.014 | [6] 0.053 | lapatinib -0.072 | pictilisib 0.061

TMED9 (UniProt Q9BVK6)
inactive: saracatinib 0.014 | sotrastaurin 0.048 | alvocidib -0.07 | Tubastatin A -0.022 | [1] 0.064 | defactinib -0.023 | rucaparib -0.074 | [2] -0.052 | encorafenib 0.028 | [3] 0.007 | [4] -0.009 | filanesib -0.077 | zotarolimus 0.018 | idasanutlin -0.004 | alisertib -0.051 | [5] -0.008 | gefitinib 0 | [6] 0.013 | lapatinib 0.026 | pictilisib -0.009

TMOD2 (UniProt Q9NZR1)
inactive: saracatinib -0.01 | sotrastaurin 0.114 | alvocidib -0.13 | Tubastatin A 0.061 | [1] 0.105 | defactinib 0.047 | rucaparib -0.194 | [2] 0.04 | encorafenib -0.009 | [3] -0.004 | [4] 0.024 | filanesib 0.015 | zotarolimus 0.03 | idasanutlin -0.068 | alisertib -0.127 | [5] -0.311 | gefitinib 0.035 | [6] 0.093 | lapatinib 0.036 | pictilisib 0.06

TMX4 (UniProt Q9H1E5)
inactive: saracatinib -0.091 | sotrastaurin -0.007 | alvocidib 0.109 | Tubastatin A 0.017 | [1] -0.009 | defactinib -0.058 | rucaparib 0.065 | [2] -0.072 | encorafenib -0.041 | [3] -0.085 | [4] -0.028 | filanesib 0.021 | zotarolimus 0.003 | idasanutlin 0.041 | alisertib -0.085 | [5] 0.063 | gefitinib 0.076 | [6] 0.06 | lapatinib -0.033 | pictilisib 0.038

Four consecutive records already listed, quoted:
TMF1 (UniProt P82094)
inactive: saracatinib 0.066 | sotrastaurin 0.025 | alvocidib 0.007 | Tubastatin A -0.016 | [1] -0.001 | defactinib -0.002 | rucaparib -0.037 | [2] -0.044 | encorafenib -0.045 | [3] 0.017 | [4] -0.036 | filanesib 0.032 | zotarolimus -0.014 | idasanutlin 0.021 | alisertib 0.007 | [5] -0.007 | gefitinib -0.01 | [6] 0.011 | lapatinib 0.011 | pictilisib 0.027

TMED1 (UniProt Q13445)
inactive: saracatinib 0.051 | sotrastaurin 0.02 | alvocidib 0.018 | Tubastatin A -0.018 | [1] 0.027 | defactinib -0.014 | rucaparib -0.023 | [2] -0.006 | encorafenib 0.022 | [3] 0.061 | [4] -0.066 | filanesib -0.076 | zotarolimus -0.023 | idasanutlin -0.184 | alisertib -0.063 | [5] -0.059 | gefitinib 0.061 | [6] 0.041 | lapatinib 0.162 | pictilisib 0.062

TMEM186 (UniProt Q96B77)
inactive: saracatinib -0.003 | sotrastaurin -0.022 | alvocidib -0.113 | Tubastatin A -0.047 | [1] 0.009 | defactinib -0.044 | rucaparib -0.067 | [2] 0.016 | encorafenib -0.103 | [3] -0.036 | [4] -0.078 | filanesib -0.035 | zotarolimus -0.09 | idasanutlin -0.008 | alisertib -0.014 | [5] -0.035 | gefitinib 0.001 | [6] 0.13 | lapatinib 0.081

TMEM168 (UniProt Q9H0V1)
inactive: saracatinib -0.289 | sotrastaurin 0.109 | alvocidib 0.026 | Tubastatin A -0.107 | [1] 0.023 | defactinib -0.025 | rucaparib 0 | [2] -0.048 | encorafenib -0.048 | [3] -0.066 | [4] -0.026 | filanesib -0.009 | zotarolimus -0.03 | idasanutlin -0.084 | alisertib 0.009 | [5] 0.028 | gefitinib 0.008 | [6] 0.074 | lapatinib -0.042 | pictilisib -0.009

Following part

TMEM259 (UniProt Q4ZIN3)
inactive: saracatinib -0.041 | sotrastaurin 0.052 | alvocidib -0.027 | Tubastatin A -0.063 | [1] -0.048 | defactinib -0.013 | rucaparib 0.033 | [2] -0.057 | encorafenib -0.077 | [3] -0.013 | [4] -0.016 | filanesib -0.002 | zotarolimus -0.043 | idasanutlin -0.006 | alisertib 0.494 | [5] -0.021 | gefitinib 0.02 | [6] -0.013 | lapatinib -0.005 | pictilisib 0.004

TMEM14C (UniProt Q9P0S9)
inactive: saracatinib 0.131 | sotrastaurin 0.016 | alvocidib 0.101 | Tubastatin A 0.007 | [1] 0.094 | defactinib -0.056 | rucaparib -0.001 | [2] -0.029 | encorafenib -0.023 | [3] 0.003 | [4] -0.043 | filanesib 0.131 | zotarolimus -0.084 | idasanutlin 0 | alisertib 0.087 | [5] -0.019 | gefitinib -0.028 | [6] 0.043 | lapatinib -0.124 | pictilisib 0.023
